Measurements reported in patent US10123904B2, “Preservative removal from eye drops” (University of Florida Research Foundation, Inc., priority 2014, dated 2018).
Like-named read-outs stand apart in the source and are kept apart here. For at least one compound, name, drawing or mass did not settle the structure.

Experiments:
[1] = Dexamethasone/BAK separation by macroporous HEMA-co-MAA copolymer hydrogel in syringe; format: physicochemical; conditions: first pass, 5 mm
[2] = BAK/drug removal by crushed macroporous pHEMA particles packed in syringe, passes separated by 24 hours; format: physicochemical; conditions: particles pre-equilibrated with the corresponding drug solution
Description: Macroporous pHEMA hydrogel as prepared above was dried in the oven of 80° C. and crushed into particles and the particles packed into the syringe. Two pieces of filter papers were placed at the bottom of the syringe to prevent the packing particles from leaking out. Particles facilitate packing of a hydrogel into the neck of the eye drop bottle where packing is amenable to high-throughput industrial scale loading of gel filters. […] The process was timed using a stopwatch from the moment of placing the weight to the last drop entered the beaker. The weight of the collected solution in the beaker was measured to calculate the flow rate through the pHEMA particles. […] The UV spectrum of the collected solution was measured and the individual concentration of the drug and BAK were determined by a least square fit method as described in Kim et al., Int. J. […] After each measurement, the bottom outlet of the syringe was sealed with parafilm to prevent dehydration of the packed pHEMA particles in the manner equivalent to sealing the eye drop bottle with the cap after use.

[3] = BAK/drug removal by macroporous pHEMA gel plug packed in syringe, 10 consecutive passes; format: physicochemical; conditions: 2.5 mL through 5 mm macroporous pHEMA gel, 1 cm syringe
Description: The four drugs were dissolved in PBS and mixed with BAK individually. The macroporous pHEMA hydrogel prepared as above, was used as the BAK removal filter and packed into the syringe, as described above. The experimental setup is that of FIG. 3. […] The solution that passed through the filter plug was collected and the concentration of drug/BAK was determined by measuring the UV-Vis spectra. The measured UV spectrum was a linear combination of the testing drug and BAK and thus, the individual concentration of the drug and BAK could be determined by applying a least square fit method as described in Kim et al. Int. J.

[4] = first run; hydrogel treated with 1% MAA

## C[C@@H]1C[C@H]2[C@@H]3CCC4=CC(=O)C=C[C@]4(C)[C@@]3(F)[C@@H](O)C[C@]2(C)[C@@]1(O)C(=O)CO [Dexamethasone, dexamethasone]
[1]
  Percentage of dexamethasone absorbed: 45%
[2]
  Portion of drug absorbed: only a very small portion
[3]; 10th pass
  Percentage removed/absorbed after passing through plug: 10%
[3]; first run
  Percentage removed/absorbed after passing through plug: 65%
[4]
  Percentage of dexamethasone absorbed: 17%
